Consider four molecules from US20160168234A1.

The chains behind the UniProt entries cited, without tags or fusion partners. Residues count along the entry.
UniProt P05067, residues 672-713: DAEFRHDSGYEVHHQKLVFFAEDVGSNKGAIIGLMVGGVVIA

Where a chain is given by its changes, count along the chain named. Results are given in words; binding and its absence hold for the method and conditions named. Some entries that bind do so weakly or less than the wild type.

Assay [1] has as its target amyloid plaques of brains from AD disease patients (human) (UniProt P05067). The assay can be described thus: immunohistochemistry on paraffin sections of human brain pretreated with formic acid.
The target of assay [2] is Amyloid Beta (antigen of the Amyloid Beta ELISA) (UniProt P05067). The assay can be described thus: Amyloid Beta ELISA, purified antibody from NS0. (In general: ELISA stands for enzyme-linked immunosorbent assay.)
For assay [3] the target is unchanged. Kind of assay: Amyloid Beta ELISA, conditioned medium from transient transfection.

B1: C2 ChVH AF/ChVK chimeric antibody (purified, IgG4) (antibody, V domains shown)
VH: EVQLVESGGGLVQPGGSLKLSCAASGFTFSSYGMSWVRQTPDKRLELVASINSNGGSTYYPDSVKGRFTISRDNAKNTLYLQMSSLKSEDTAMYYCASGDYWGQGSTLTVSS
VL: DVVMTQTPLSLPVSLGDQASISCRSSQSLVYSNGDTYLHWYLQKPGQSPKLLIYKVSNRFSGVPDRFSGSGSGTDFTLKISRVEAEDLGVYFCSQSTHVPWTFGGGTKLEIKR
In the case of B1, the binding entry in assay [1] and in assay [2] was “binds” throughout.

B2: C2HuVH4/HuVK2 humanized antibody (purified) (antibody, human IgG4, V domains shown)
VH: EVQLVESGGGLVQPGGSLRLSCAASGFTFSSYGMSWVRQAPGKGLELVASINSNGGSTYYPDSVKGRFTISRDNAKNSLYLQMNSLRAEDTAVYYCASGDYWGQGTTVTVSS
VL: B1 VL with V2I, T7S, S14T, L15P, D17E, Q18P, K50Q, L88V, G105Q, L109V
B2: the binding result in assay [2] was “binds”.

B3: VK-R antibody (mC2 VK-R with chimeric C2 VH) (antibody, V domains shown)
VH: B1 VH
VL: DVVMTQTPLSLPVSLGDQASISCRSSQSLVYSNGDTYLHWYLQKPGQSPKLLIYRVSNRFSGVPDRFSGSGSGTDFTLKISRVEAEDLGVYFCSQSTHVPWTFGGGTKLEIK
As for B3, the binding entry in assay [3] is “binds”.

B4: VK-S antibody (mC2 VK-S with chimeric C2 VH) (antibody, V domains shown)
VH: B1 VH
VL: B3 VL with R55K, N58S
With B4, in assay [3], the binding result is “binds”.
